Some of the results follow.

The test system of this assay is T1, CTL2-GFP (C. trachomatis L2/434/Bu, GFP-expressing).
T1 construct: L2/434/Bu, GFP-expressing
Set-up: species or system HeLa; Intracellular C. trachomatis growth in HeLa cells, bulk GFP fluorescence relative to DMSO. As to conditions: bulk GFP, single well; 28.5 h, 10 µM; inhibitor.
Take `COc1ccc([C@]23CN(C)C[C@H]2CCN(C(=O)Nc2cccc(Cl)c2)C3)cc1OC` [CBK075104T]: the “% of control remaining” value is given as 111.571%.

With `CCCC1(C)CCCN(Cc2nnnn2-c2ccc(S(C)(=O)=O)cc2)C1` (stereo not shown) [CBK304133], the “% of control remaining” value stood at 125.797%.

Take `CN(C)Cc1cc(C[C@@H]2C[C@H](NCc3ccccn3)C2(C)C)no1` [CBK289313]: the “% of control remaining” value is on record as 140.602%.

For `CNCCc1ccccc1Sc1ccccc1` [CBK027155G], the “% of control remaining” value stood at 129.027%.

For the molecule `Cc1nn(CC(C)C(=O)N2CCCC(CN(C)C)C2)c(C)c1Cl` (stereo not shown) [CBK282186], the “% of control remaining” value was 124.003%.

Turning to `Cc1cc2nc(-c3cc(NC(=O)/C=C/c4cccc([N+](=O)[O-])c4)ccc3O)oc2cc1C` [CBK263438], the “% of control remaining” value was determined as 108.895%.

On to `CCc1cccc2c(/C=C3/SC(=S)N(CC(=O)O)C3=O)c[nH]c12` [CBK264937], for which the “% of control remaining” value is recorded as 100%.

In the case of `COc1ccc(CN2CCc3cc(OC)c(OC)cc3C2c2ccccc2)cc1CO` (stereo not shown) [CBK286358], the “% of control remaining” value worked out at 106.766%.

Take `CC(=O)N1CCN(C(=O)Cn2ccc3ccccc32)CC(O)C1` (stereo not shown) [CBK307552]: the “% of control remaining” value is listed as 101.264%.

For `COc1ccc(CN2Cc3nc[nH]c3C[C@H]2C(=O)NCc2ccccc2)c2ccccc12` [CBK288976], the “% of control remaining” value is recorded as 110.948%.

In the case of `O=[N+]([O-])c1cccc(CN2CCC(N3CCN(Cc4ccccc4)CC3)CC2)c1` [CBK264609G], the “% of control remaining” value stood at 115.98%.

Take `CC(C)n1c(=O)n(C(=O)c2ccco2)c2cccnc21` [CBK283856]: the “% of control remaining” value is on record as 92.249%.

With `O=C(NCCc1cccs1)Nc1ccccc1` [CBK269917], the “% of control remaining” value is 109.798%.

For `Cc1cc(C(=O)NC(C)c2ccccn2)c2ccccc2n1` (stereo not shown) [CBK281826], the “% of control remaining” value turned out to be 94.1798%.

Regarding `O=C(N1CCC(Oc2nccnc2OCc2ccc(Cl)cc2F)CC1)C(F)(F)F` [CBK164142], the “% of control remaining” value is on record as 98.9941%.

Turning to `COc1cccc(COc2nccnc2-c2ccc(C)cc2C)c1OC` [CBK106995], the “% of control remaining” value came out at 90.9521%.

As for `Clc1ccc2c(c1)CCC(NCC1COc3ccccc3O1)C2` (stereo not shown) [CBK013077C], the “% of control remaining” value is 107.82%.

Regarding `O=C1NCCCC12CCN(Cc1ccccc1N1CCCCC1)CC2` [CBK284878], the “% of control remaining” value is recorded as 118.684%.

As to `Cc1ccc(-c2nnc3c4ccccc4c(C)nn23)cc1S(=O)(=O)NC(C)c1ccccc1` (stereo not shown) [CBK266715], the “% of control remaining” value worked out at 169.42%.

As for `CC(NC(=O)c1cc(C(F)(F)F)n(C)n1)c1cccnc1` (stereo not shown) [CBK282203], the “% of control remaining” value is recorded as 121.892%.

Turning to `O=C(Cc1ccccc1)Nc1ccc(NC(=O)c2ccc(-c3ccccc3)cc2)cc1` [CBK268821], the “% of control remaining” value was found to be 147.577%.

In the case of `O=c1[nH]c2ncc(-c3ccsc3)nc2n1-c1ccc2[nH]ccc2c1` [CBK064650], the “% of control remaining” value worked out at 172.493%.

For `Cc1c(C(=O)N2CCN(C3CCN(C)CC3)CC2)nnn1-c1cccc(C(F)(F)F)c1` [CBK149088], the “% of control remaining” value was found to be 125.211%.

`CN(Cc1cnc(-c2ccncc2)cn1)C1CCN(C(=O)OC(C)(C)C)CC1` [CBK172979]: the “% of control remaining” value is listed as 102.78%.

As to `O=C(O)c1ccc(CNCCc2ccccc2)cc1` [CBK287215], the “% of control remaining” value is given as 128.707%.

With `O=C1CCC(=O)N1CCn1c(=O)n(S(=O)(=O)c2cccc(Cl)c2)c2ccccc21` [CBK106493], the “% of control remaining” value turned out to be 105.663%.

Consider `Cc1nn2cc(CNC(=O)CN3CCOc4ccccc4C3)nc2s1` [CBK306921], for which the “% of control remaining” value stood at 144.647%.

As for `Cc1cc(OC(=O)C2CCC(CNC(=O)OC(C)(C)C)CC2)c2c3c(c(=O)oc2c1)CCCC3` (stereo not shown) [CBK083590], the “% of control remaining” value worked out at 95.2143%.

On to `CC(C)(C)n1cc(NC2CCN(c3ccc(C#N)cc3)C2=O)cn1` (stereo not shown) [CBK306445], for which the “% of control remaining” value is reported as 108.328%.

With `CC(C)CC(=O)N1CCN(C(=O)c2ccc(F)cc2)CC1` [CBK003603], the “% of control remaining” value was 138.541%.

Take `Cc1cc(=O)c2ccccc2n1CC(=O)N1CCC2(CCO2)CC1` [CBK306809]: the “% of control remaining” value worked out at 136.242%.

Turning to `O=C(O)/C(=C\c1ccccc1)NC(=O)c1cccc([N+](=O)[O-])c1` [CBK263348], the “% of control remaining” value was 113.906%.

For the molecule `COc1ccc(S(=O)(=O)N2CCC(C(=O)Nc3cccc(F)c3)CC2)cc1C` [CBK267987], the “% of control remaining” value is 124.761%.

For the molecule `c1ccc2c(c1)CCN(c1nc3cc4c(cc3s1)OCCO4)C2` [CBK287498], the “% of control remaining” value came out at 139.854%.

With `O=C(c1ccco1)N1CCC(c2ccnc3nc4ccccc4n23)CC1` [CBK284490], the “% of control remaining” value came out at 130.467%.

Consider `Cn1nc(C2CC2)cc1NC(=O)NCC1CCN(c2ccccc2F)C1` (stereo not shown) [CBK304380], for which the “% of control remaining” value was 124.838%.

For `CCN1CCN(C(=O)CN(CC)S(=O)(=O)c2ccc(Cl)cc2)CC1` [CBK268461], the “% of control remaining” value was found to be 91.049%.

With `Cc1ccc(CC(=O)N2CCCCC2c2ncc(-c3cccc(F)c3)[nH]2)cn1` (stereo not shown) [CBK291152], the “% of control remaining” value stood at 102.495%.

In the case of `CN1CCN(CCOC(=O)N2CCCC(F)(F)C2)CC1` [CBK200208], the “% of control remaining” value was found to be 103.15%.

Turning to `O=C(OCc1cccc(C(=O)c2ccccc2)c1)c1ccc(-c2nnc(-c3ccccc3)o2)cc1` [CBK267852], the “% of control remaining” value was 87.9517%.

On to `Nc1ccc(OCc2nc3ccccc3n2CC(=O)O)cc1` [CBK270099], for which the “% of control remaining” value is listed as 132.175%.

Regarding `CCCN1CCC(NC(C)CCCC(C)(C)O)CC1` (stereo not shown) [CBK261932], the “% of control remaining” value was found to be 101.263%.

In the case of `Cc1ccc(S(=O)(=O)NC[C@H]2O[C@@H](CC(=O)N3CCCC3)[C@H](O)[C@@H]2O)cc1` [CBK288910], the “% of control remaining” value was 111.929%.

In the case of `COc1ccc(S(=O)(=O)N(C)CC(=O)N2CCN(C)CC2)cc1C` [CBK268105], the “% of control remaining” value came out at 109.2%.

As for `O=C(O)C1CCN(C(=O)CCC(=O)N2CCN(c3ccccc3)CC2)CC1` [CBK286896], the “% of control remaining” value is given as 116.772%.

Turning to `Cc1c(CN(Cc2cccc(F)c2)CC2CCCO2)cnn1C` (stereo not shown) [CBK282953], the “% of control remaining” value was 86.1113%.

Consider `COc1ccc2cc(CN(CCNC(=O)OC(C)(C)C)C(=O)NC3CCCCC3)c(=O)[nH]c2c1` [CBK132074], for which the “% of control remaining” value amounted to 145.757%.

In the case of `Cc1noc(C(C)C)c1C(=O)NC(C)c1cccc(Br)c1` (stereo not shown) [CBK296618], the “% of control remaining” value turned out to be 95.2898%.

Take `CCC(=O)N(Cc1cc2cc(C)ccc2nc1O)c1ccc(C)c(C)c1` [CBK265381]: the “% of control remaining” value is on record as 116.348%.

The record behind these values is PMC12040169 (PLOS Biology, 2025).
